PubChem BioAssay AID686943 | Drosophila RNAi Screening Center – 2013
The deposit covers about 23,000 reagents; shown is a random part of those with a known target gene and a result. 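Extra replicates exist only for a retested subset of genes; insulin dose and duration not given; both raised and lowered dpERK matter.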 Further read-outs or replicates are left out here. Not given: the amount of reagent, the time to read-out.

Aim: 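Search across the genome for regulators of signalling from receptor tyrosine kinase to ERK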 (primary screen)
System: Drosophila S2R+ haemocyte-like cells expressing YFP-tagged ERK (Rolled)
Reagent: long dsRNA against Drosophila genes
Conditions: insulin stimulation versus unstimulated cells; dose and duration not given
Read-out: 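Antibody staining for doubly phosphorylated ERK divided by ERK-YFP signal, as plate z-scores, in insulin-treated and untreated cells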
Scale: replicate 1, z-score of dpERK with insulin: higher = more active ERK per ERK-YFP after insulin

Which result is listed for CG18265 (GeneID 39947) [DRSC10310]?
replicate 1, z-score of dpERK with insulin: 0.25

For jhamt (GeneID 34977) [DRSC01985], what does the deposit list?
replicate 1, z-score of dpERK with insulin: -0.01

With z (GeneID 31230) [DRSC18855], what was measured?
replicate 1, z-score of dpERK with insulin: -1.06

How did the screen score ProRS-m (GeneID 38331) [DRSC08261]?
replicate 1, z-score of dpERK with insulin: 0.82

How did the screen score CG31516 (GeneID 318776) [DRSC11994]?
replicate 1, z-score of dpERK with insulin: 0.16

How did the screen score wtrw (GeneID 40931) [DRSC14241]?
replicate 1, z-score of dpERK with insulin: 0.8

What did the screen give for wtrw (GeneID 40931) [DRSC15278]?
replicate 1, z-score of dpERK with insulin: 0.59

For S-Lap8 (GeneID 36844) [DRSC06870], how do the results read?
replicate 1, z-score of dpERK with insulin: -0.29

Which result is listed for S-Lap8 (GeneID 36844) [DRSC21372]?
replicate 1, z-score of dpERK with insulin: 0.48

For CG4983 (GeneID 34585) [DRSC02799], what does the deposit list?
replicate 1, z-score of dpERK with insulin: 0.37

How did the screen score alt (GeneID 42127) [DRSC15315]?
replicate 1, z-score of dpERK with insulin: 0.22

What did the screen give for CG4278 (GeneID 34970) [DRSC02741]?
replicate 1, z-score of dpERK with insulin: -0.15

2 successive reagents already listed, quoted:
alt (GeneID 42127) [DRSC15315]: replicate 1, z-score of dpERK with insulin = 0.22
CG4278 (GeneID 34970) [DRSC02741]: replicate 1, z-score of dpERK with insulin = -0.15
